These are yes or no findings as the source states them, for the method shown. Binding seen in cells or lysates may run through a third protein. Some binding calls cover weakened binding; strength is not graded here.
Assays:
[1] = target: myosin 1B (MYO1B) (human (endogenous in BeWo)) (UniProt O43795); assay: co-IP; BeWo cells (1 x 10^7) lysed in NP-40 buffer; 5 ug N-WASP antibody or Myosin Ib antibody overnight at 4 °C, protein A/G magnetic beads 3 h at room temperature; eluate analysed by Western blot
[2] = target: neural Wiskott-Aldrich syndrome protein (N-WASP) (human (endogenous in BeWo)) (UniProt O00401); assay: as above

Protein sequences, listed by entry. Tags and fused reporters are not part of them.
UniProt O43795: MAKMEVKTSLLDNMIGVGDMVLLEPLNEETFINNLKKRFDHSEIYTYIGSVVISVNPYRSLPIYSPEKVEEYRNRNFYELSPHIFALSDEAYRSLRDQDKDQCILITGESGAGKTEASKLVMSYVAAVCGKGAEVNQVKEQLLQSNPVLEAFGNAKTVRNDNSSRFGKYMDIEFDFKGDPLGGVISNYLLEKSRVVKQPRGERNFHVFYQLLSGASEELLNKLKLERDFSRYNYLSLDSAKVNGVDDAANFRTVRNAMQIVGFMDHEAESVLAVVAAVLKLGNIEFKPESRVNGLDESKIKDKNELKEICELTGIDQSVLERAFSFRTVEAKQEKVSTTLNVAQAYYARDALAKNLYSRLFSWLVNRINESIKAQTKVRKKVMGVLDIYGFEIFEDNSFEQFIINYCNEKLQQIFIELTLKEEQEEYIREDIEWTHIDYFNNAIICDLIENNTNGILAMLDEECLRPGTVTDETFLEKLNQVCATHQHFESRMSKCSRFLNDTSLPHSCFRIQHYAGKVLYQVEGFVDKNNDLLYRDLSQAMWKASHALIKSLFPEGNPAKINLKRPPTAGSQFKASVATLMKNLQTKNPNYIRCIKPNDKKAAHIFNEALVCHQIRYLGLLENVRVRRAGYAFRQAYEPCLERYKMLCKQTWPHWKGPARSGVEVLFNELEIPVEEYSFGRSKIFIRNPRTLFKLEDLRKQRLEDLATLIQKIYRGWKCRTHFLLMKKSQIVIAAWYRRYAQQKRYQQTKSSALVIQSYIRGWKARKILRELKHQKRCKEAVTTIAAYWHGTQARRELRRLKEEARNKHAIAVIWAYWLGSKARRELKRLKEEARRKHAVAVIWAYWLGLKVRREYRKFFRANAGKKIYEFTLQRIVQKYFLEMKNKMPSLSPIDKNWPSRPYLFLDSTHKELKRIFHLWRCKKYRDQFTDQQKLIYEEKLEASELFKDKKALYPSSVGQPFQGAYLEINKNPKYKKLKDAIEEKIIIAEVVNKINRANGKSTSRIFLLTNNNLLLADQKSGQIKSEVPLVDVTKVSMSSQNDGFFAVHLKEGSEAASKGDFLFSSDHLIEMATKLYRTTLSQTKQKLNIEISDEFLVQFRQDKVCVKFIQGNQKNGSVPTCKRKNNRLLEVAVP
UniProt O00401: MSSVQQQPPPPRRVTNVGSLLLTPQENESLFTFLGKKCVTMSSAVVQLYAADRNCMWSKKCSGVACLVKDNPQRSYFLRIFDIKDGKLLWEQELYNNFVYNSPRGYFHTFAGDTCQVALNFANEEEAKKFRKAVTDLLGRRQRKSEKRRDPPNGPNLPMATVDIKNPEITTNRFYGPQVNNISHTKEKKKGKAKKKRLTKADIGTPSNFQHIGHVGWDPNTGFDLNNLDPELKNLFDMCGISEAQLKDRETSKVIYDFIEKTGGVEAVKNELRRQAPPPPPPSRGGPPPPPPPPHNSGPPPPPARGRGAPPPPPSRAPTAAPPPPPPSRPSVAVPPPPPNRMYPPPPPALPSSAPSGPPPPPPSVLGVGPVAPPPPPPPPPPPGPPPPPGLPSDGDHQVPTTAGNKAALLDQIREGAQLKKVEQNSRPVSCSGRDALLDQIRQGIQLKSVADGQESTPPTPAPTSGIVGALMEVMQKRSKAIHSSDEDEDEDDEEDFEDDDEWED

Row | Substance | binding [1] | binding [2]
1 | neural Wiskott-Aldrich syndrome protein (N-WASP) (from UniProt O00401 1-505) | binds | 
2 | myosin 1B (MYO1B) (from UniProt O43795 1-1136) |  | binds
